Experimental data: PubChem BioAssay AID686938 (Drosophila RNAi Screening Center, 2013)

- Assay: 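Knock-downs reducing store-operated calcium influx in Drosophila cells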 (primary screen)
- Cells: Drosophila S2R+ cells
- Knock-down reagent: long dsRNA against Drosophila genes, about 0.25 µg dsRNA per well, roughly 10,000 cells
- Time to read-out: 5 days of knock-down before the calcium assay
- Treatment: thapsigargin (SERCA pump blocker) to empty calcium stores; entry signal taken 4 min after adding it
- Read-out: 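Duplicate raw fluo-4 intensities per well from a plate reader, at rest and four minutes after thapsigargin emptied calcium stores; entry-to-rest ratio filled for only some wells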
- Reading the numbers: calcium entry signal: higher = stronger calcium signal after store depletion; resting calcium signal: higher = higher resting calcium signal
- Active means: 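Hit if the duplicate-averaged plate z-score for entry over resting signal is under −3; wells with weak total dye signal (Fmax z < −2) or more than 5 off-targets removed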
- Meaning of the calls: active = strongly reduced calcium entry; inactive = no strong reduction
The deposit covers about 23,000 reagents; shown is an unselected part of those with a known target gene and a result. Of all reagents, 75 (0.33%) got an active call. 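Raw plate signals without normalisation; calls rest on plate z-scores that were not deposited; ratio present for only 364 wells.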 Unmarked entries are inactive. The numbers tell different reagents against one gene apart. The record does not give: the dose of the treatment.

Which result is listed for CG13315?
calcium entry signal, replicate 1 (fluorescence units): 3.36e7; calcium entry signal, replicate 2 (fluorescence units): 3.95e7; resting calcium signal, replicate 1 (fluorescence units): 1.63e7; resting calcium signal, replicate 2 (fluorescence units): 1.60e7

For vn #1, what was measured?
calcium entry signal, replicate 1 (fluorescence units): 3.44e7; calcium entry signal, replicate 2 (fluorescence units): 4.45e7; resting calcium signal, replicate 1 (fluorescence units): 1.83e7; resting calcium signal, replicate 2 (fluorescence units): 2.06e7

With vn #2, how do the results read?
calcium entry signal, replicate 1 (fluorescence units): 3.96e7; calcium entry signal, replicate 2 (fluorescence units): 3.16e7; resting calcium signal, replicate 1 (fluorescence units): 2.13e7; resting calcium signal, replicate 2 (fluorescence units): 1.60e7

What did the screen give for Mo25?
calcium entry signal, replicate 1 (fluorescence units): 2.22e7; calcium entry signal, replicate 2 (fluorescence units): 2.95e7; resting calcium signal, replicate 1 (fluorescence units): 1.14e7; resting calcium signal, replicate 2 (fluorescence units): 2.09e7

With Him, what does the deposit list?
calcium entry signal, replicate 1 (fluorescence units): 3.34e7; calcium entry signal, replicate 2 (fluorescence units): 3.05e7; resting calcium signal, replicate 1 (fluorescence units): 1.70e7; resting calcium signal, replicate 2 (fluorescence units): 1.40e7

What is on record for COX3 (retired record)?
calcium entry signal, replicate 1 (fluorescence units): 3.81e7; calcium entry signal, replicate 2 (fluorescence units): 4.06e7; resting calcium signal, replicate 1 (fluorescence units): 2.21e7; resting calcium signal, replicate 2 (fluorescence units): 2.04e7

For mus301, what does the deposit list?
calcium entry signal, replicate 1 (fluorescence units): 2.92e7; calcium entry signal, replicate 2 (fluorescence units): 3.27e7; resting calcium signal, replicate 1 (fluorescence units): 1.60e7; resting calcium signal, replicate 2 (fluorescence units): 1.48e7

With RpL39, how do the results read?
calcium entry signal, replicate 1 (fluorescence units): 1.50e7; calcium entry signal, replicate 2 (fluorescence units): 1.42e7; resting calcium signal, replicate 1 (fluorescence units): 1.04e7; resting calcium signal, replicate 2 (fluorescence units): 9.60e6

Which result is listed for cyr #1?
calcium entry signal, replicate 1 (fluorescence units): 3.63e7; calcium entry signal, replicate 2 (fluorescence units): 4.47e7; resting calcium signal, replicate 1 (fluorescence units): 1.72e7; resting calcium signal, replicate 2 (fluorescence units): 2.05e7

What is on record for cyr #2?
calcium entry signal, replicate 1 (fluorescence units): 3.34e7; calcium entry signal, replicate 2 (fluorescence units): 4.42e7; resting calcium signal, replicate 1 (fluorescence units): 1.70e7; resting calcium signal, replicate 2 (fluorescence units): 2.05e7

For cyr #3, what was measured?
calcium entry signal, replicate 1 (fluorescence units): 3.04e7; calcium entry signal, replicate 2 (fluorescence units): 4.50e7; resting calcium signal, replicate 1 (fluorescence units): 1.61e7; resting calcium signal, replicate 2 (fluorescence units): 2.08e7

Which result is listed for sun?
calcium entry signal, replicate 1 (fluorescence units): 4.31e7; calcium entry signal, replicate 2 (fluorescence units): 3.35e7; resting calcium signal, replicate 1 (fluorescence units): 2.11e7; resting calcium signal, replicate 2 (fluorescence units): 1.54e7
